# Measured values from the supplement of paper PMC8728848.
# The other results are listed elsewhere or left out.
# How the values were obtained:
# Test in all cases: glycan array binding signal (z-score within array); higher = stronger binding
# Conditions in all cases: glycan notation: IUPAC condensed, linker removed
# [1] = target: Neu5Ac(a2-6)Gal(b1-4)GlcNAc(b1-3)Gal(b1-4)GlcNAc(b1-3)Gal(b1-4)GlcNAc(b1-2)Man(a1-3)[Neu5Ac(a2-6)Gal(b1-4)GlcNAc(b1-3)Gal(b1-4)GlcNAc(b1-3)Gal(b1-4)GlcNAc(b1-2)Man(a1-6)]GalNAc
# Outline: (§1)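 Glycan array binding is given as a within-array Z-score, which can be read as non-binding when negative. The arrays, 3228 of them, came from the Consortium for Functional Glycomics database and were retained only where the protein sequence was available. Z-scores were averaged across arrays of the same protein sequence at different concentrations or buffers and across linkers.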
# [2] = target: Neu5Ac(a2-6)Gal(b1-4)GlcNAc(b1-3)Gal(b1-4)GlcNAc(b1-3)GalNAc
# Outline: as §1
# [3] = target: Neu5Ac(a2-6)Gal(b1-4)GlcNAc(b1-3)Gal(b1-4)GlcNAc(b1-3)[Neu5Ac(a2-6)Gal(b1-4)GlcNAc(b1-3)Gal(b1-4)GlcNAc(b1-6)]GalNAc
# Outline: as §1
# [4] = target: Neu5Ac(a2-6)Gal(b1-4)GlcNAc(b1-3)Gal(b1-4)GlcNAc(b1-6)[Gal(b1-3)]GalNAc
# Outline: as §1
# [5] = target: Neu5Ac(a2-6)Gal(b1-4)GlcNAc(b1-3)Gal(b1-4)[Fuc(a1-3)]GlcNAc(b1-3)Gal(b1-4)[Fuc(a1-3)]GlcNAc
# Outline: as §1
# [6] = target: Neu5Ac(a2-6)Gal(b1-4)GlcNAc(b1-3)GalNAc
# Outline: as §1
# [7] = target: Neu5Ac(a2-6)Gal(b1-4)GlcNAc(b1-3)[Neu5Ac(a2-6)Gal(b1-4)GlcNAc(b1-6)]GalNAc
# Outline: as §1
# [8] = target: Neu5Ac(a2-6)Gal(b1-4)GlcNAc(b1-6)GalNAc
# Outline: as §1
# [9] = target: Neu5Ac(a2-6)Gal(b1-4)GlcNAc(b1-6)[Gal(b1-3)GlcNAc(b1-3)]Gal(b1-4)Glc
# Outline: as §1
# [10] = target: Neu5Ac(a2-6)Gal(b1-4)GlcNAc(b1-6)[Gal(b1-3)]GalNAc
# Outline: as §1
# [11] = target: Neu5Ac(a2-6)Gal(b1-4)GlcNAc6S
# Outline: as §1
# Neu5Ac(a2-6)GalNAc = target: Neu5Ac(a2-6)GalNAc
# Outline: as §1
# [12] = target: Neu5Ac(a2-6)GalNAc(b1-4)GlcNAc
# Outline: as §1
# [13] = target: Neu5Ac(a2-6)GalNAc(b1-4)GlcNAc6S
# Outline: as §1
# [14] = target: Neu5Ac(a2-6)GlcNAc(b1-4)GlcNAc
# Outline: as §1
# [15] = target: Neu5Ac(a2-6)GlcNAc(b1-4)GlcNAc(b1-4)GlcNAc
# Outline: as §1
# Neu5Ac(a2-8)Neu5Ac = target: Neu5Ac(a2-8)Neu5Ac
# Outline: as §1
# [16] = target: Neu5Ac(a2-8)Neu5Ac(a2-3)Gal(b1-3)GalNAc(b1-4)[Neu5Ac(a2-3)]Gal(b1-4)Glc
# Outline: as §1
# [17] = target: Neu5Ac(a2-8)Neu5Ac(a2-3)Gal(b1-3)GalNAc(b1-4)[Neu5Ac(a2-8)Neu5Ac(a2-3)]Gal(b1-4)Glc
# Outline: as §1
# [18] = target: Neu5Ac(a2-8)Neu5Ac(a2-3)Gal(b1-4)Glc
# Outline: as §1
# [19] = target: Neu5Ac(a2-8)Neu5Ac(a2-3)Gal(b1-4)GlcNAc
# Outline: as §1
# [20] = target: Neu5Ac(a2-8)Neu5Ac(a2-3)[Gal(b1-3)GalNAc(b1-4)]Gal(b1-4)Glc
# Outline: as §1
# [21] = target: Neu5Ac(a2-8)Neu5Ac(a2-3)[GalNAc(b1-4)]Gal(b1-4)Glc
# Outline: as §1
# [22] = target: Neu5Ac(a2-8)Neu5Ac(a2-8)Neu5Ac
# Outline: as §1
# [23] = target: Neu5Ac(a2-8)Neu5Ac(a2-8)Neu5Ac(a2-3)Gal(b1-4)Glc
# Outline: as §1
# [24] = target: Neu5Ac(a2-8)Neu5Ac(a2-8)Neu5Ac(a2-3)[Gal(b1-3)GalNAc(b1-4)]Gal(b1-4)Glc
# Outline: as §1
# [25] = target: Neu5Ac(a2-8)Neu5Ac(a2-8)Neu5Ac(a2-3)[GalNAc(b1-4)]Gal(b1-4)Glc
# Outline: as §1
# [26] = target: Neu5Ac(a2-8)Neu5Ac(a2-8)Neu5Ac(a2-8)Neu5Ac(a2-3)[GalNAc(b1-4)]Gal(b1-4)Glc
# Outline: as §1
# [27] = target: Neu5Ac(a2-8)Neu5Gc(a2-3)Gal(b1-4)GlcNAc
# Outline: as §1
# [28] = target: Neu5Ac(b2-6)Gal(b1-4)GlcNAc
# Outline: as §1
# Neu5Ac(b2-6)GalNAc = target: Neu5Ac(b2-6)GalNAc
# Outline: as §1
# [29] = target: Neu5Ac9Ac(a2-3)Gal(b1-3)GlcNAc
# Outline: as §1
# [30] = target: Neu5Ac9Ac(a2-3)Gal(b1-4)GlcNAc
# Outline: as §1
# [31] = target: Neu5Ac9Ac(a2-6)Gal(b1-4)GlcNAc
# Outline: as §1
# [32] = target: Neu5Gc(a2-3)Gal(b1-3)GlcNAc
# Outline: as §1
# [33] = target: Neu5Gc(a2-3)Gal(b1-3)[Fuc(a1-4)]GlcNAc
# Outline: as §1
# Neu5Gc(a2-3)Gal(b1-4)Glc = target: Neu5Gc(a2-3)Gal(b1-4)Glc
# Outline: as §1
# [34] = target: Neu5Gc(a2-3)Gal(b1-4)GlcNAc
# Outline: as §1
# [35] = target: Neu5Gc(a2-3)Gal(b1-4)GlcNAc(b1-3)Gal(b1-4)GlcNAc(b1-2)Man(a1-3)[Neu5Gc(a2-3)Gal(b1-4)GlcNAc(b1-3)Gal(b1-4)GlcNAc(b1-2)Man(a1-6)]Man(b1-4)GlcNAc(b1-4)GlcNAc
# Outline: as §1
# [36] = target: Neu5Gc(a2-3)Gal(b1-4)[Fuc(a1-3)]GlcNAc
# Outline: as §1
# [37] = target: Neu5Gc(a2-6)Gal(b1-4)GlcNAc
# Outline: as §1
# Neu5Gc(a2-6)GalNAc = target: Neu5Gc(a2-6)GalNAc
# Outline: as §1
# [38] = target: Neu5Gc(a2-8)Neu5Ac(a2-3)Gal(b1-4)GlcNAc
# Outline: as §1
# [39] = target: Neu5Gc(a2-8)Neu5Gc(a2-3)Gal(b1-4)GlcNAc
# Outline: as §1
# [40] = target: Neu5Gc(a2-8)Neu5Gc(a2-3)Gal(b1-4)GlcNAc(b1-3)Gal(b1-4)GlcNAc
# Outline: as §1
# [41] = target: Neu5Gc(a2-8)Neu5Gc(a2-6)Gal(b1-4)GlcNAc
# Outline: as §1
# [42] = target: Neu5Gc(b2-6)Gal(b1-4)GlcNAc
# Outline: as §1
binder,measurement,setting,value
"FGF1 (Homo sapiens), P05230 (protein) MAEGEITTFTALTEKFNLPPGNYKKPKLLYSNGGHFLRILPDGTVDGTRDRSDQHIQLQLSAESVGEVYIKSTETGQYLAMTDGLLYGSQTPNEECLFLERLEENHYNTYISKHAEKNWFVGLKKNGSCKRGPRTHYGQAILFLPLPASSED",glycan array binding signal (z-score),[1],1.92
same,glycan array binding signal (z-score),[2],-0.825
same,glycan array binding signal (z-score),[3],1.56
same,glycan array binding signal (z-score),[4],-0.81
same,glycan array binding signal (z-score),[5],0.127
same,glycan array binding signal (z-score),[6],1.32
same,glycan array binding signal (z-score),[7],-0.709
same,glycan array binding signal (z-score),[8],4.24
same,glycan array binding signal (z-score),[9],-0.583
same,glycan array binding signal (z-score),[10],-0.644
same,glycan array binding signal (z-score),[11],0.441
same,glycan array binding signal (z-score),Neu5Ac(a2-6)GalNAc,-0.658
same,glycan array binding signal (z-score),[12],-0.944
same,glycan array binding signal (z-score),[13],-0.597
same,glycan array binding signal (z-score),[14],-0.312
same,glycan array binding signal (z-score),[15],-0.474
same,glycan array binding signal (z-score),Neu5Ac(a2-8)Neu5Ac,-0.154
same,glycan array binding signal (z-score),[16],-0.453
same,glycan array binding signal (z-score),[17],1.18
same,glycan array binding signal (z-score),[18],-0.768
same,glycan array binding signal (z-score),[19],-0.695
same,glycan array binding signal (z-score),[20],-0.524
same,glycan array binding signal (z-score),[21],-0.838
same,glycan array binding signal (z-score),[22],-0.501
same,glycan array binding signal (z-score),[23],1.57
same,glycan array binding signal (z-score),[24],0.41
same,glycan array binding signal (z-score),[25],-0.452
same,glycan array binding signal (z-score),[26],-0.636
same,glycan array binding signal (z-score),[27],-0.833
same,glycan array binding signal (z-score),[28],-0.874
same,glycan array binding signal (z-score),Neu5Ac(b2-6)GalNAc,-0.985
same,glycan array binding signal (z-score),[29],1.47
same,glycan array binding signal (z-score),[30],-0.689
same,glycan array binding signal (z-score),[31],-0.641
same,glycan array binding signal (z-score),[32],-0.141
same,glycan array binding signal (z-score),[33],1.13
same,glycan array binding signal (z-score),Neu5Gc(a2-3)Gal(b1-4)Glc,-0.215
same,glycan array binding signal (z-score),[34],0.029
same,glycan array binding signal (z-score),[35],0.622
same,glycan array binding signal (z-score),[36],0.18
same,glycan array binding signal (z-score),[37],0.431
same,glycan array binding signal (z-score),Neu5Gc(a2-6)GalNAc,1.07
same,glycan array binding signal (z-score),[38],-0.861
same,glycan array binding signal (z-score),[39],-0.778
same,glycan array binding signal (z-score),[40],-0.879
same,glycan array binding signal (z-score),[41],-0.059
same,glycan array binding signal (z-score),[42],0.513

# Random excerpt: 2 records from the list, in no set order.
binder,measurement,setting,value
"FGF1 (Homo sapiens), P05230 (protein) MAEGEITTFTALTEKFNLPPGNYKKPKLLYSNGGHFLRILPDGTVDGTRDRSDQHIQLQLSAESVGEVYIKSTETGQYLAMTDGLLYGSQTPNEECLFLERLEENHYNTYISKHAEKNWFVGLKKNGSCKRGPRTHYGQAILFLPLPASSED",glycan array binding signal (z-score),[27],-0.833
same,glycan array binding signal (z-score),[8],4.24
